Counter-ions that a name gives are not always drawn. Part of at least one peptide drawing is inferred or uncertain, most often the ends. Where a SMILES comes first, the peptide text is derived from it. [ ]: non-standard residue; d: D form. pGlu = O=C1CC[C@@H](C(=O)O)N1; Aib = CC(C)(N)C(=O)O
Tested on: mature Sprague-Dawley rats (ovulation)
Assay: anti-ovulatory test in proestrous female rats
Format: in vivo, rat

For CC(C)C[C@H](NC(=O)C(C)(C)NC(=O)[C@H](Cc1ccc(O)cc1)NC(=O)[C@H](CO)NC(=O)[C@H](Cc1c[nH]c2ccccc12)NC(=O)[C@@H](Cc1ccccc1)NC(=O)[C@@H]1CCC(=O)N1)C(=O)N[C@@H](CCCNC(=N)N)C(=O)N1CCC[C@H]1C(=O)NCC(N)=O [acetate salt of formula I, L-(5-oxoprolyl)-D-phenylalanyl-L-tryptophyl-L-seryl-L-tyrosyl-2-methylalanyl-L-leucyl-L-arginyl-L-prolylglycinamide acetate salt] ([pGlu][dF]WSY[Aib]LRPG-NH2), the inhibition of ovulation (dose of 1 mg per injection, six subcutaneous injections in corn oil, proestrous Sprague-Dawley rats) was “inhibition of ovulation was achieved in all of the rats tested” and the ovulation inhibition (female rats 225 to 250 g, dose of about 24 mg/kg, six subcutaneous injections in corn oil at half-hour intervals on afternoon of proestrous) was “complete ovulation inhibition was achieved in all of the rats tested”.
